# Test results published in paper PMC6626145.
# Chains of the proteins cited; added tags and fusions are not shown.
# UniProt A0AAR7: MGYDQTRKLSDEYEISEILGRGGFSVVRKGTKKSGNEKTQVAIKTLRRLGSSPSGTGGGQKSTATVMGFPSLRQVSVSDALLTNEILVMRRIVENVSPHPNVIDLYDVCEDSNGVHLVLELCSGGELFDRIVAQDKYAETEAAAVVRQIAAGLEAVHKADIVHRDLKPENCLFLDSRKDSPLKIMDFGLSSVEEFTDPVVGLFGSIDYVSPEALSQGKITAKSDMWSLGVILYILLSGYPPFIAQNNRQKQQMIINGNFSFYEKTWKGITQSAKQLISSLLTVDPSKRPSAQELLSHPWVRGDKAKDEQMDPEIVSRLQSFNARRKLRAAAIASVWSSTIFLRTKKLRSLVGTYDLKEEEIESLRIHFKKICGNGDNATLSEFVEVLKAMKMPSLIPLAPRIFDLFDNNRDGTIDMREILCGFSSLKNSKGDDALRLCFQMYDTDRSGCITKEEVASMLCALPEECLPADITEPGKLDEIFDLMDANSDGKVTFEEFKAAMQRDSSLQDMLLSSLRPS
# Results are given in words; binding and its absence hold for the method and conditions named. For some of these results: Binding seen in cells or lysates may run through a third protein. Some results given as binding are weak or reduced against the parent protein; the word gives no strength. For some of these results: Sequences can lack the tags named with a protein.
# T1: StrepII-SUMO-CYCLOPS (Lotus japonicus) (UniProt A9XMT3)
# T1 sequence: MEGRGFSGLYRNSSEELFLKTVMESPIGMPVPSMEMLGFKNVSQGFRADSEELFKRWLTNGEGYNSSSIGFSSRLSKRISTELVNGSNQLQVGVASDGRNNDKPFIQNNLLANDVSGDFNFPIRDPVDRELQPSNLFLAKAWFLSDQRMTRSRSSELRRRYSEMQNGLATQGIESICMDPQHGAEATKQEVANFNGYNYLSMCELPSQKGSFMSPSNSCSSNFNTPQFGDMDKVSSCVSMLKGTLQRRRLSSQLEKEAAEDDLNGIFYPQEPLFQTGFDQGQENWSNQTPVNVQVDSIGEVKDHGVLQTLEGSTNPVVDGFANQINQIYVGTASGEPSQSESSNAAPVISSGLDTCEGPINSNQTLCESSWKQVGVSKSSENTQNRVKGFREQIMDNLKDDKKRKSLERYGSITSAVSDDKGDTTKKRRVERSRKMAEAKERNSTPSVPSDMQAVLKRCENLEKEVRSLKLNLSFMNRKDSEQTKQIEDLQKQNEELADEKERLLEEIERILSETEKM
# B1: CYCLOPS fused to the GAL4 activation domain (AD) (protein, UniProt A9XMT3 1-518)
# chain: MEGRGFSGLYRNSSEELFLKTVMESPIGMPVPSMEMLGFKNVSQGFRADSEELFKRWLTNGEGYNSSSIGFSSRLSKRISTELVNGSNQLQVGVASDGRNNDKPFIQNNLLANDVSGDFNFPIRDPVDRELQPSNLFLAKAWFLSDQRMTRSRSSELRRRYSEMQNGLATQGIESICMDPQHGAEATKQEVANFNGYNYLSMCELPSQKGSFMSPSNSCSSNFNTPQFGDMDKVSSCVSMLKGTLQRRRLSSQLEKEAAEDDLNGIFYPQEPLFQTGFDQGQENWSNQTPVNVQVDSIGEVKDHGVLQTLEGSTNPVVDGFANQINQIYVGTASGEPSQSESSNAAPVISSGLDTCEGPINSNQTLCESSWKQVGVSKSSENTQNRVKGFREQIMDNLKDDKKRKSLERYGSITSAVSDDKGDTTKKRRVERSRKMAEAKERNSTPSVPSDMQAVLKRCENLEKEVRSLKLNLSFMNRKDSEQTKQIEDLQKQNEELADEKERLLEEIERILSETEKM
# B2: deletion variant of CYCLOPS (amino acids 84–366) (domain or fragment, UniProt A9XMT3 84-366)
# chain: VNGSNQLQVGVASDGRNNDKPFIQNNLLANDVSGDFNFPIRDPVDRELQPSNLFLAKAWFLSDQRMTRSRSSELRRRYSEMQNGLATQGIESICMDPQHGAEATKQEVANFNGYNYLSMCELPSQKGSFMSPSNSCSSNFNTPQFGDMDKVSSCVSMLKGTLQRRRLSSQLEKEAAEDDLNGIFYPQEPLFQTGFDQGQENWSNQTPVNVQVDSIGEVKDHGVLQTLEGSTNPVVDGFANQINQIYVGTASGEPSQSESSNAAPVISSGLDTCEGPINSNQTL
# Legend:
# [1] = biological target: T1, StrepII-SUMO-CYCLOPS (Lotus japonicus); test: SEC; co-purified complex (Strep-Tactin, then heparin column) on Superose 6 increase 10/300 GL; 50 mM Tris pH 7.8, 150 mM NaCl, 4 mM DTT; SDS-PAGE of fractions; both purified
# [2] = biological target: T1, StrepII-SUMO-CYCLOPS (Lotus japonicus); test: pull-down; StrepII-SUMO-CYCLOPS and His-SUMO-CCaMK co-expressed in E. coli; lysate supernatant on Strep-Tactin sepharose beads, 1 hour, 4 °C; 100 mM Tris pH 7.8, 150 mM NaCl, 5 mM DTT; eluted with 2.5 mM desthiobiotin; SDS-PAGE of eluted fractions
# [3] = biological target: CCaMK fused to the GAL4 binding domain (BD) (Lotus japonicus); test: two-hybrid; yeast strain AH109; Gal4BD and Gal4AD fusions from pYeast 2 µ Leu 1-2 and pYeast 2 µ Trp 3-4; growth on -LWAH solid media, 28 °C, 4 days
Molecule,binding [1],binding [2],binding [3]
His-SUMO-CCaMK (from UniProt A0AAR7 1-518) (enzyme),binds,binds,
B1,,,binds
B2,,,binds
